Sequences of proteins named here, by UniProt entry; tags and fusion partners are left off. A change or cut given only in a name is not applied to a line headed by its entry.
UniProt P55211: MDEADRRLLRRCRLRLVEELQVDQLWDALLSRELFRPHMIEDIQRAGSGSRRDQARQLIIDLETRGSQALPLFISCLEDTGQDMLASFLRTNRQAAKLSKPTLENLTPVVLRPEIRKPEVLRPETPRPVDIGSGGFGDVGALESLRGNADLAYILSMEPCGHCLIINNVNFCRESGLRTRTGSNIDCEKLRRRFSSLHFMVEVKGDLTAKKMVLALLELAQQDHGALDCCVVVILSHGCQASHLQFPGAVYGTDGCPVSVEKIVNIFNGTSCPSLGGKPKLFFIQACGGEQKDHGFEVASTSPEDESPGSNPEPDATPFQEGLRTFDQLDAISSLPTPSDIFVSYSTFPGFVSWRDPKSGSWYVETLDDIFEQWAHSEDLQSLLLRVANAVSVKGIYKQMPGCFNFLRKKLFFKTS

According to paper PMC3561343:

Target: VCP-Flag (valosin-containing protein, wild type) (UniProt P55072)
Experiment: co-IP; AGS cells expressing VCP-Flag, Tri-mut VCP-Flag or empty vector, incubated with H. pylori (6 hr), with MG-132 or LY294002 pretreatment in some panels; lysate precipitated with anti-Flag M2 affinity gel 4 hr at 4°C; immunoblot of the precipitate

binding: binds
Substance: Caspase9 (from UniProt P55211)

No constants are given. Whether binding was seen depends on the method and setting. In cells and extracts the contact can be indirect. Binding calls can cover weak binding; strength is not graded here.
